The text below walks through data of US20070274981A1.

Sequences of proteins named here, by UniProt entry; tags and fusion partners are left off. A change or cut given only in a name is not applied to a line headed by its entry. A line that says so, or that is headed by a name, gives the form on record, which may keep a tag or linker.
Recombinant FGFR-1(IIIb) (P11362, form named): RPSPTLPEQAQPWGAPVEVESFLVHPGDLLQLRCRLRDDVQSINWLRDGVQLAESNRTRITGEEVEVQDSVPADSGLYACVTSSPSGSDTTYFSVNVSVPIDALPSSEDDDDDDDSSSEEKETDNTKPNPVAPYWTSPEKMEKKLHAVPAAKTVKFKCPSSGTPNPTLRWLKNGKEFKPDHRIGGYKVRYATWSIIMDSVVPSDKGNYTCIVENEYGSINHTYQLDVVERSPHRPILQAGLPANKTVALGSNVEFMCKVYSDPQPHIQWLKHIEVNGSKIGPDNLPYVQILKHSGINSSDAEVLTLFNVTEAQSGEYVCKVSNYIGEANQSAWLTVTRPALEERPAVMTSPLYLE

In assay [1] the target is Recombinant FGFR-1(IIIb) (UniProt P11362). Description: summary of the binding experiments.
Assay [2] has as its target T1, Recombinant FGFR-4 (UniProt P22455).
T1 sequence (looked up): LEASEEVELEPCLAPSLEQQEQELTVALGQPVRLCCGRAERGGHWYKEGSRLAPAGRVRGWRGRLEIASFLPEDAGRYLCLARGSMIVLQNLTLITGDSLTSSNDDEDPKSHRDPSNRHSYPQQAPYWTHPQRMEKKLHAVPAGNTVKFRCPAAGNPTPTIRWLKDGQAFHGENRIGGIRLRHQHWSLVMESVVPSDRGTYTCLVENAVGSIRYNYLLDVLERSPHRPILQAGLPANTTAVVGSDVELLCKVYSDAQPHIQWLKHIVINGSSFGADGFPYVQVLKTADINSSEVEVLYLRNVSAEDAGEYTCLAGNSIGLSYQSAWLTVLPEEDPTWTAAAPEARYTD
As to the kind of experiment: summary of the binding experiments.

The target in assay [3] is Recombinant FGFR-1(IIIb) (UniProt P11362). Description: ELISA binding assay, receptor coated.
Assay [4] has as its target T1, Recombinant FGFR-4. As to the kind of experiment: ELISA binding assay, receptor coated.

No constants are given. Whether binding was seen depends on the method and setting. Some entries that bind do so weakly or less than the wild type.

B1: FR1-H7 (antibody, V domains shown)
VH: EVQLVQSGAEVKKPGASVKVSCKVSGYTFTDYYMHWVQQAPGKGLEWMGLVDPEDGETIYAEKFQGRVTITADTSTDTAYMELSSLRSEDTAVYYCARDDYMDVWGKGTLVTVSS
VL: ETTLTQSPDTLSLSPGEGATLSCRASQSVSGSALAWYQQKPGQAPRLLIYDASSRATGVPDRFSGSGSGADFSLTISRLEPEDFAVYSCQQYGSSPLTFGPGTKVDVKR
Consider B1, for which the binding result in the assay with Recombinant FGFR-1(IIIb) [1], with Recombinant FGFR-4 [2] and with Recombinant FGFR-1(IIIb) [3] was “binds” each time.

B2: FR1-A1 (antibody, V domains shown)
VH: QVQLVQSGAEVKKPGSSVKVSCKASGQTFTGYYMHWVRQAPGQGLEWMGRIIPILGIANYAQKFQGRVTITADKSTSTAYMELSSLRSEDTAVYYCARGGDLGGMDVWGQG
VL: EIVLTQSPLSLPVTPGEPASISCRSSQSLRHSNGYNYLDWYLQKPGQSPQLLIYLASNRASGVPDRFSGSGSGTDFTLKISRVEAEDVGVYYCMQALQIPPTFGPGTKVDIKR
Consider B2, for which the binding result with Recombinant FGFR-4 [2] and with Recombinant FGFR-4 [4] was “binds” each time.
